Results published in US7531623B2 (Theravance, Inc., priority 2003, dated 2009).

Assay: peptide synthesis
Conditions: hydrochloride

Substance: N^van-2-(n-Decylamino)ethyl Vancomycin Hydrochloride
- crude purity (method not given) (lipidation step, HPLC): ˜85% purity

Substance: telavancin
- crude HPLC purity (late stage modification step, HPLC): 76.5% purity
- final HPLC purity (purification step, HPLC): HPLC purity 91.3%
- step yield (purification step): ˜40%
